In publication PMC7884425 one finds binding data, which are given here for three molecules.

Chains of the proteins cited; added tags and fusions are not shown. Lines headed by an entry give the natural chain unless they say otherwise; changes in a name come on top. Residues count along the entry.
human PARP1 CAT domain, full-length CAT (residues 661-1014) (P09874, residues 661-1014): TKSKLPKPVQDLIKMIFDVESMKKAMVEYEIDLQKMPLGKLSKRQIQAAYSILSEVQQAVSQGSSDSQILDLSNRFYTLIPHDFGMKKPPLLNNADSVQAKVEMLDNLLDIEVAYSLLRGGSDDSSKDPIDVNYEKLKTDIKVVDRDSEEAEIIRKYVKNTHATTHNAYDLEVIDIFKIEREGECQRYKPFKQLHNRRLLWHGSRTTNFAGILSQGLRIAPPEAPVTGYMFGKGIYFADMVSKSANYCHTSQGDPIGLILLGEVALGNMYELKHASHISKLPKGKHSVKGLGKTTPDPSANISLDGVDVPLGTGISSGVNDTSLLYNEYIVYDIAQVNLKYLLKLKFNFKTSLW

Substitutions are numbered along the chain they refer to. In names and notes the source's numbering stands. No constants are given. Whether binding was seen depends on the method and setting. For some of these results: Sequences can lack the tags named with a protein.

In assay [1] the target is human PARP1 CAT domain, full-length CAT (residues 661-1014) (human) (UniProt P09874). The experiment in a line: ITC; HPF1 wild-type or mutant 0.3 or 0.4 mM in the syringe, PARP1 CAT-ΔHD (or full-length CAT) 0.02 mM in the cell; 25 °C; 20 mM Tris-pH 8.0, 150 mM NaCl, 1 mM TCEP, 1 mM MgCl2; both purified. A general note: In ITC the heat of successive injections is recorded.

Assay [2] has the same target. In words: SEC; 100 μL samples with 50 μM of each protein, on ice at least 30 min; Superdex 200 Increase; 20 mM Tris-pH 8.0, 150 mM NaCl, 1 mM TCEP, 1 mM MgCl2; peak fractions on SDS-PAGE; both purified.
For assay [3], the target named is human PARP1-CAT ΔHD (661-678-GSGSGSGG-787-1014) (human) (UniProt P09874). The experiment in a line: condition: 0.3 or 0.4 mM HPF1 in the syringe, 0.02 mM PARP1 CAT-ΔHD in the cell; ITC; HPF1 wild-type or mutant 0.3 or 0.4 mM in the syringe, PARP1 CAT-ΔHD (or full-length CAT) 0.02 mM in the cell; 25 °C; 20 mM Tris-pH 8.0, 150 mM NaCl, 1 mM TCEP, 1 mM MgCl2; both purified.

B1: human HPF1 (histone PARylation factor 1), wild-type (protein, UniProt Q9NWY4 1-346)
chain: MVGGGGKRRPGGEGPQCEKTTDVKKSKFCEADVSSDLRKEVENHYKLSLPEDFYHFWKFCEELDPEKPSDSLSASLGLQLVGPYDILAGKHKTKKKSTGLNFNLHWRFYYDPPEFQTIIIGDNKTQYHMGYFRDSPDEFPVYVGINEAKKNCIIVPNGDNVFAAVKLFLTKKLREITDKKKINLLKNIDEKLTEAARELGYSLEQRTVKMKQRDKKVVTKTFHGAGLVVPVDKNDVGYRELPETDADLKRICKTIVEAASDEERLKAFAPIQEMMTFVQFANDECDYGMGLELGMDLFCYGSHYFHKVAGQLLPLAYNLLKRNLFAEIIEEHLANRSQENIDQLAA
B1: the binding result in assay [1] is recorded as “no binding”; in assay [2] it was “no binding (tested: 50 μM of each protein)”.

B2: human HPF1 D283H (protein, UniProt Q9NWY4 1-346)
chain: B1 chain with D283H
On to B2, for which the binding result in assay [3] is reported as “no binding”.

B3: human HPF1 F268S (protein, UniProt Q9NWY4 1-346)
chain: B1 chain with F268S
For B3, the binding result in assay [3] is on record as “no binding”.
